Data taken from US6972175B2, “Inhibition of Egr-1 expression by ppar-gamma agonists and related compositions and methods” (priority 2002, dated 2005).
For at least one compound, name, drawing or mass did not settle the structure.

What was measured:
Egr-1 protein [1] = assay: Egr-1 protein expression by Western blotting in hypoxic mononuclear phagocytes; format: cell-based, rat; settings: ligand added 6 hours before 30 minutes hypoxia; Western blot, FIG. 1b
Experimental: (§1) Cell culture and induction of hypoxia. A rat alveolar macrophage cell line (NR8383) was obtained from the ATCC (Manassas, Va.), and cells were grown to 70% confluence in Ham's F-12K medium containing 15% heat-inactivated fetal bovine serum. Cells were made quiescent by serum starvation (0.2%, fetal bovine serum) for 24 hours. The PPAR-γ ligands were obtained from the following sources: troglitazone was provided by Sankyo Pharmaceutical Co. (Tokyo, Japan); and 15-d-PGJ2 was purchased from Cayman Chemical Co. (Ann Arbor, Mich.). The PPAR-α ligand bezafibrate was obtained from Sigma Chemical Co. (St. Louis. Mo.). These PPAR ligands were dissolved in minute quantities of DMSO (final concentration 0.005%). PPAR ligands were added 6 hours prior to induction of hypoxia. Using an environmental chamber described previously (Yan, 1999), cells were subjected to 30 minutes hypoxia (pO2 in the medium ˜12–14 torr. This time was chosen because it has previously been shown that this is the time of maximal Egr-1 expression in hypoxic macrophages. Cells subjected to hypoxia were placed in medium pre-equilibrated with the hypoxic gas mixture just prior to placement in the environmental chamber. Thus, cultures were immersed immediately in the oxygen-deprived environment at the time of medium change, coinciding with time of placement in the chamber.
Western blotting. […]

Egr-1/DNA binding = assay: Electrophoretic mobility gel shift assay on nuclear extracts from NR8383 cells; format: cell-based, rat; settings: nuclear extracts of NR8383 cells 30 minutes after hypoxia; 1 or 20 μM 15-d-PGJ2, 20 μM troglitazone, 20 μM bezafibrate; FIG. 1c
Experimental: as §1
Electrophoretic mobility gel shift assay. […]

Egr-1 = assay: Hypoxia-driven Egr-1 induction in macrophages (data not shown); format: cell-based
Experimental: as §1

Egr-1 mRNA [2] = assay: Egr-1 mRNA levels by Northern blotting in hypoxic mononuclear phagocytes; format: cell-based, rat; settings: NR8383 cells, ligand added 6 hours before 30 minutes hypoxia; Northern blot, FIG. 1a
Experimental: Cell culture and induction of hypoxia. A rat alveolar macrophage cell line (NR8383) was obtained from the ATCC (Manassas, Va.), and cells were grown to 70% confluence in Ham's F-12K medium containing 15% heat-inactivated fetal bovine serum. Cells were made quiescent by serum starvation (0.2%, fetal bovine serum) for 24 hours. The PPAR-γ ligands were obtained from the following sources: troglitazone was provided by Sankyo Pharmaceutical Co. (Tokyo, Japan); and 15-d-PGJ2 was purchased from Cayman Chemical Co. (Ann Arbor, Mich.). The PPAR-α ligand bezafibrate was obtained from Sigma Chemical Co. (St. Louis. Mo.). These PPAR ligands were dissolved in minute quantities of DMSO (final concentration 0.005%). PPAR ligands were added 6 hours prior to induction of hypoxia. […]

Egr-1 mRNA [3] = assay: Egr-1 mRNA levels in murine lung ischemia/reperfusion model; format: in vivo, mouse; settings: troglitazone 5 or 100 mg/kg/day oral gavage 7 days; 1 hour ischemia, 1 hour reperfusion; FIG. 3a
Egr-1 protein [4] = assay: Egr-1 protein expression in murine lung ischemia/reperfusion model; format: in vivo, mouse; settings: troglitazone oral gavage 7 days; 1 hour ischemia, 1 hour reperfusion; FIG. 3b
Sp-1 = Sp-1 expression (specificity control) in murine lung ischemia/reperfusion model; format: in vivo, mouse
[5] = Arterial oxygenation after lung ischemia/reperfusion; format: in vivo, mouse; settings: troglitazone pretreatment 7 days; 1 hour ischemia, 3 hours reperfusion; 5 minutes after circulatory exclusion of right lung; FIG. 4a
myeloperoxidase activity = assay: Lung myeloperoxidase activity assay (leukocyte accumulation) after ischemia/reperfusion; format: in vivo, mouse; settings: troglitazone pretreatment 7 days; 1 hour ischemia, 3 hours reperfusion; FIG. 4b
IL-1β mRNA = IL-1β mRNA expression in lungs exposed to ischemia/reperfusion; format: in vivo, mouse; settings: troglitazone pretreatment 7 days; 1 hour ischemia, 3 hours reperfusion; FIG. 4c
MCP-1 mRNA = MCP-1 mRNA expression in lungs exposed to ischemia/reperfusion; format: in vivo, mouse; settings: troglitazone pretreatment 7 days; 1 hour ischemia, 3 hours reperfusion; FIG. 4d
MIP-2 mRNA = MIP-2 mRNA expression in lungs exposed to ischemia/reperfusion; format: in vivo, mouse; settings: troglitazone pretreatment 7 days; 1 hour ischemia, 3 hours reperfusion; FIG. 4e

Structure (SMILES)	Egr-1 protein levels after hypoxia (Egr-1 protein [1])	gel shift band associated with Egr-1/DNA binding (Egr-1/DNA binding)	hypoxia-driven Egr-1 induction in macrophages (Egr-1)	Egr-1 mRNA levels after hypoxia (Egr-1 mRNA [2])	Egr-1 mRNA levels in reperfused lung (Egr-1 mRNA [3])	Egr-1 protein levels in reperfused lung (Egr-1 protein [4])	effect on related transcription factor Sp-1 (Sp-1)	arterial oxygenation (PaO2) [5]	myeloperoxidase activity in lungs (myeloperoxidase activity)	IL-1β mRNA upregulation (IL-1β mRNA)	MCP-1 mRNA levels (MCP-1 mRNA)	MIP-2 mRNA levels (MIP-2 mRNA)
CC(C)(Oc1ccc(CCNC(=O)c2ccc(Cl)cc2)cc1)C(=O)O [bezafibrate]	but not bezafibrate, significantly inhibited	dense band was observed										
CC1(COc2ccc(CC3SC(=O)NC3=O)cc2)CCCCC1 (centres unmarked) [ciglitazone]			suppresses hypoxia-driven Egr-1 induction									
Cc1c(C)c2c(c(C)c1O)CCC(C)(COc1ccc(CC3SC(=O)NC3=O)cc1)O2 (centres unmarked) [troglitazone]	significantly inhibited	virtually abrogated		significantly reduced	significantly decreased in a dose-dependent manner	significantly inhibited	not affected	significantly increased	significantly reduced	significantly suppressed	significantly suppressed	significantly suppressed
